These results are taken from article PMC7478007.

Test [1] has as its target ETS-related gene 1 (ERG1), endogenous (human (endogenous in MCF-7)). The test can be described thus: co-IP; endogenous proteins; MCF-7 cells treated with TGF-β for 24 h, nuclear lysates; immunoprecipitation with indicated antibodies, Western blot. On the technique in general: Immunoblotting shows a protein as a band on a membrane.
The target is the same in test [2]. The test can be described thus: Re-ChIP; MCF-7 and T47D cells treated with or without TGF-β for 24 h; formaldehyde cross-linked chromatin, sequential immunoprecipitation with indicated antibodies, RhoJ promoter amplified.

No constants are given. Whether binding was seen depends on the method and setting. Binding calls can cover weak binding; strength is not graded here. For some assays here: In cells and extracts the contact can be indirect.

B1: Megakaryocytic leukemia 1 (MKL1), endogenous (protein, UniProt Q969V6 1-931)
chain: MPPLKSPAAFHEQRRSLERARTEDYLKRKIRSRPERSELVRMHILEETSAEPSLQAKQLKLKRARLADDLNEKIAQRPGPMELVEKNILPVESSLKEAIIVGQVNYPKVADSSSFDEDSSDALSPEQPASHESQGSVPSPLEARVSEPLLSATSASPTQVVSQLPMGRDSREMLFLAEQPPLPPPPLLPPSLTNGTTIPTAKSTPTLIKQSQPKSASEKSQRSKKAKELKPKVKKLKYHQYIPPDQKQDRGAPPMDSSYAKILQQQQLFLQLQILNQQQQQHHNYQAILPAPPKSAGEALGSSGTPPVRSLSTTNSSSSSGAPGPCGLARQNSTSLTGKPGALPANLDDMKVAELKQELKLRSLPVSGTKTELIERLRAYQDQISPVPGAPKAPAATSILHKAGEVVVAFPAARLSTGPALVAAGLAPAEVVVATVASSGVVKFGSTGSTPPVSPTPSERSLLSTGDENSTPGDTFGEMVTSPLTQLTLQASPLQILVKEEGPRAGSCCLSPGGRAELEGRDKDQMLQEKDKQIEALTRMLRQKQQLVERLKLQLEQEKRAQQPAPAPAPLGTPVKQENSFSSCQLSQQPLGPAHPFNPSLAAPATNHIDPCAVAPGPPSVVVKQEALQPEPEPVPAPQLLLGPQGPSLIKGVAPPTLITDSTGTHLVLTVTNKNADSPGLSSGSPQQPSSQPGSPAPAPSAQMDLEHPLQPLFGTPTSLLKKEPPGYEEAMSQQPKQQENGSSSQQMDDLFDILIQSGEISADFKEPPSLPGKEKPSPKTVCGSPLAAQPSPSAELPQAAPPPPGSPSLPGRLEDFLESSTGLPLLTSGHDGPEPLSLIDDLHSQMLSSTAILDHPPSPMDTSELHFVPEPSSTMGLDLADGHLDSMDWLELSSGGPVLSLAPLSTTAPSLFSTDFLDGHDLQLHWDSCL
Regarding B1, the binding entry in test [1] and in test [2] was “binds” in each case.
